According to doi:10.1101/2022.03.11.483950:
No constants are given. Whether binding was seen depends on the method and setting. Some entries that bind do so weakly or less than the wild type.

T1: PplT (prokaryotic phospholipid translocator) protein of Escherichia coli (E. coli) (UniProt P75770)
T1 sequence: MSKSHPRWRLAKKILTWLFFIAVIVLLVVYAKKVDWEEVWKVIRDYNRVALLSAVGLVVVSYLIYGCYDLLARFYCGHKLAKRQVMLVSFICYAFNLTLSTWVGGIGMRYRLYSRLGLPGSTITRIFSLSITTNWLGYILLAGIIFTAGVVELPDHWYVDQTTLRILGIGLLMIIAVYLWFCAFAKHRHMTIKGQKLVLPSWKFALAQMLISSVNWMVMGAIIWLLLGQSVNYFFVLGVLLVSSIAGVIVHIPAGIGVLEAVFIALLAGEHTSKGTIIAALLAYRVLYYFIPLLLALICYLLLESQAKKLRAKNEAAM


Molecular target: T1, PplT (prokaryotic phospholipid translocator) protein of Escherichia coli (E. coli)
Experiment: two-hybrid

Row | Binder | binding
1 | PgpA (enzyme, UniProt P18200 1-172) MTILPRHKDVAKSRLKMSNPWHLLAVGFGSGLSPIVPGTMGSLAAIPFWYLMTFLPWQLYSLVVMLGICIGVYLCHQTAKDMGVHDHGSIVWDEFIGMWITLMALPTNDWQWVAAGFVIFRILDMWKPWPIRWFDRNVHGGMGIMIDDIVAGVISAGILYFIGHHWPLGILS | binds
2 | PgpB (enzyme, UniProt P0A924 1-254) MRSIARRTAVGAALLLVMPVAVWISGWRWQPGEQSWLLKAAFWVTETVTQPWGVITHLILFGWFLWCLRFRIKAAFVLFAILAAAILVGQGVKSWIKDKVQEPRPFVIWLEKTHHIPVDEFYTLKRAERGNLVKEQLAEEKNIPQYLRSHWQKETGFAFPSGHTMFAASWALLAVGLLWPRRRTLTIAILLVWATGVMGSRLLLGMHWPRDLVVATLISWALVAVATWLAQRICGPLTPPAEENREIAQREQES | binds
3 | PgpC (enzyme, UniProt P0AD42 1-211) MATHERRVVFFDLDGTLHQQDMFGSFLRYLLRRQPLNALLVLPLLPIIAIALLIKGRAARWPMSLLLWGCTFGHSEARLQTLQADFVRWFRDNVTAFPLVQERLTTYLLSSDADIWLITGSPQPLVEAVYFDTPWLPRVNLIASQIQRGYGGWVLTMRCLGHEKVAQLERKIGTPLRLYSGYSDSNQDNPLLYFCQHRWRVTPRGELQQLE | binds
4 | cardiolipin synthase ClsB (enzyme, UniProt P0AA84 1-413) MKCSWREGNKIQLLENGEQYYPAVFKAIGEAQERIILETFIWFEDDVGKQLHAALLAAAQRGVKAEVLLDGYGSPDLSDEFVNELTAAGVVFRYYDPRPRLFGMRTNVFRRMHRKIVVIDARIAFIGGLNYSAEHMSSYGPEAKQDYAVRLEGPIVEDILQFELENLPGQSAARRWWRRHHKAEENRQPGEAQVLLVWRDNEEHRDDIERHYLKMLTQARREVIIANAYFFPGYRFLHALRKAARRGVRIKLIIQGEPDMPIVRVGARLLYNYLVKGGVQVFEYRRRPLHGKVALMDDHWATVGSSNLDPLSLSLNLEANVIIHDRHFNQTLRDNLNGIIAADCQQVDETMLPKRTWWNLTKSVLAFHFLRHFPALVGWLPAHTPRLAQVDPPAQPTMETQDRVETENTGVKP | binds
